Taken from: PubChem BioAssay AID1508597 (Cure First, 2020)
Purpose: 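Survival screen with siRNA in ovarian cancer cells derived from patients, with or without rucaparib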 (primary screen). Cell system: human ovarian carcinoma lines grown from tumours: OCI-P5x (papillary serous) and OCI-C5x (clear cell). Knock-down reagent: siRNA pool against human genes, 1.25 pmol siRNA per well. Time to read-out: 72 h or 96 h, depending on the cell culture. Challenge: rucaparib 20 µM (about IC30) or vehicle, present until read-out. Rucaparib or vehicle: Vehicle. Cell line: OCI-P5x (serous). Detection: 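ATP luminescence measured at 72 or 96 h according to the culture, then normalised and expressed as percent viability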. Scale: viability, normalised: higher = more viable cells remaining. Call rule: 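Active when normalised viability falls below 80 percent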. Calls: active = viability under 80%; inactive = viability 80% or more.
Shown is a random part of the about 2,100 reagents, under one of the conditions tested. 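Calls flag viability under 80% in either arm, not effects specific to rucaparib; the reference for percent is not stated.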 Some reagents were tested in more than one well and are listed for each. No sequences are given here. Not stated in the record: the 100% reference.

no.	gene	PubChem SID	technical replicate	viability, normalised (%)	activity call
1	RAX2 (GeneID 84839)	SID405528434	1	85.6	inactive
2	RAX2 (GeneID 84839)	SID405528434	2	88.9	inactive
3	RAX2 (GeneID 84839)	SID405528434	3	92.1	inactive
4	NLGN2 (GeneID 57555)	SID405527076	1	63.8	active
5	NLGN2 (GeneID 57555)	SID405527076	2	71.6	active
6	NLGN2 (GeneID 57555)	SID405527076	3	84.5	inactive
7	NTHL1 (GeneID 4913)	SID405528271	1	59.4	active
8	NTHL1 (GeneID 4913)	SID405528271	2	71.8	active
9	NTHL1 (GeneID 4913)	SID405528271	3	68.4	active
10	USP22 (GeneID 23326)	SID405526612	1	66.4	active
11	USP22 (GeneID 23326)	SID405526612	2	71.6	active
12	USP22 (GeneID 23326)	SID405526612	3	65.9	active
13	STK38L (GeneID 23012)	SID405527762	1	61.9	active
14	STK38L (GeneID 23012)	SID405527762	2	87	inactive
15	STK38L (GeneID 23012)	SID405527762	3	65.6	active
16	DIDO1 (GeneID 11083)	SID405528226	1	49.1	active
17	DIDO1 (GeneID 11083)	SID405528226	2	53.9	active
18	DIDO1 (GeneID 11083)	SID405528226	3	56.7	active
19	PI4K2B (GeneID 55300)	SID405527742	1	79.3	active
20	PI4K2B (GeneID 55300)	SID405527742	2	67.9	active
21	PI4K2B (GeneID 55300)	SID405527742	3	63.5	active
22	EEF2K (GeneID 29904)	SID405528532	1	51.8	active
23	EEF2K (GeneID 29904)	SID405528532	2	75.6	active
24	EEF2K (GeneID 29904)	SID405528532	3	43.5	active
25	FBXL19 (GeneID 54620)	SID405526779	1	67.3	active
26	FBXL19 (GeneID 54620)	SID405526779	2	78.3	active
27	FBXL19 (GeneID 54620)	SID405526779	3	46.8	active
28	KLF1 (GeneID 10661)	SID405526945	1	56.6	active
29	KLF1 (GeneID 10661)	SID405526945	2	74.1	active
30	KLF1 (GeneID 10661)	SID405526945	3	110	inactive
31	GTF2H1 (GeneID 2965)	SID405528282	1	74.6	active
32	GTF2H1 (GeneID 2965)	SID405528282	2	71.9	active
33	GTF2H1 (GeneID 2965)	SID405528282	3	66.3	active
34	WRN (GeneID 7486)	SID405526632	1	58.8	active
35	WRN (GeneID 7486)	SID405526632	1	65.3	active
36	WRN (GeneID 7486)	SID405526632	2	59	active
37	WRN (GeneID 7486)	SID405526632	2	93.5	inactive
38	WRN (GeneID 7486)	SID405526632	3	76.2	active
39	WRN (GeneID 7486)	SID405526632	3	50.7	active
40	RNF40 (GeneID 9810)	SID405527255	1	45.3	active
41	RNF40 (GeneID 9810)	SID405527255	2	59.6	active
42	RNF40 (GeneID 9810)	SID405527255	3	42.5	active
43	VRK3 (GeneID 51231)	SID405528340	1	140	inactive
44	VRK3 (GeneID 51231)	SID405528340	1	72.2	active
45	VRK3 (GeneID 51231)	SID405528340	2	143	inactive
46	VRK3 (GeneID 51231)	SID405528340	2	68.3	active
47	VRK3 (GeneID 51231)	SID405528340	3	134	inactive
48	VRK3 (GeneID 51231)	SID405528340	3	53.4	active
49	SLIT3 (GeneID 6586)	SID405527320	1	71.7	active
50	SLIT3 (GeneID 6586)	SID405527320	2	70	active
51	SLIT3 (GeneID 6586)	SID405527320	3	91.7	inactive
52	SSRP1 (GeneID 6749)	SID405526501	1	55.7	active
53	SSRP1 (GeneID 6749)	SID405526501	1	82.7	inactive
54	SSRP1 (GeneID 6749)	SID405526501	2	79.7	active
55	SSRP1 (GeneID 6749)	SID405526501	2	64.6	active
56	SSRP1 (GeneID 6749)	SID405526501	3	82.9	inactive
57	SSRP1 (GeneID 6749)	SID405526501	3	73.9	active

Sorted by “viability, normalised (%)” (ascending): some entries from above
gene	PubChem SID	technical replicate	viability, normalised (%)	activity call
NTHL1 (GeneID 4913)	SID405528271	1	59.4	active
USP22 (GeneID 23326)	SID405526612	3	65.9	active
USP22 (GeneID 23326)	SID405526612	1	66.4	active
NTHL1 (GeneID 4913)	SID405528271	3	68.4	active
USP22 (GeneID 23326)	SID405526612	2	71.6	active
NTHL1 (GeneID 4913)	SID405528271	2	71.8	active
NLGN2 (GeneID 57555)	SID405527076	3	84.5	inactive
